Assay results: PubChem BioAssay AID504834 (National Center for Advancing Translational Sciences (NCATS), 2011)
About 22,000 (6.9%) of roughly 320,000 compounds were called active. Inconclusive results, whose numbers are uncertain, are shown with a selection of clear calls. Calls follow the shape of the dose curve; as a rule, active = well fitted inhibition curve with a large enough effect; inconclusive = small, poorly fitted or top-dose-only effect, or another doubt; inactive = no such curve, though single readings can be large or run the other way. A potency beside an inconclusive call is a rough fit, not a confirmed value.
% is scaled to controls: 0 for no effect and ±100 for the full control effect; potency is read from the fitted curve at half-maximal effect.

Assay: Primary qHTS for delayed death inhibitors of the malarial parasite plastid, 96 hour incubation
Conditions: P. falciparum luciferase reporter growth; series mostly up to 28.7 µM; activity change, negative = inhibition: at the top concentration
In short: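 Luminescence readout: decreased luciferase signal marks inhibited growth of reporter-expressing P. falciparum in infected red cells (2% hematocrit, 0.05% parasitemia final), exposed to compound two generations (96 h, 37 C, 5% CO2).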
For `NC(N)=NC[C@@H]1COC2(CCCCC2)O1`, the Potency was inconclusive: 8.09 µM [inhibitor, single point].
With `CCN1CCN(c2ccc(S(=O)(=O)N3CCOCC3)cc2NC(=O)CCOc2ccccc2)CC1` the Potency was inconclusive: 18.5 µM [inhibitor, single point].
For `COc1ccc(CCNC(=O)Cn2c(=O)c3cccn3c3cccnc32)c(OC)c1OC`, the Potency was inconclusive: 11.7 µM [inhibitor, single point].
In the case of `O=C(N[C@@H](Cc1ccccc1)C(=O)N1CCN(S(=O)(=O)c2ccc(F)cc2)CC1)c1ccco1`, the “activity change, negative = inhibition” value is reported as inactive: -16.2%.
With `COc1ccc(/C=N/N2C(=O)CSC2=S)cc1Br` the Potency was inconclusive: 13.1 µM [inhibitor, single point].
In the case of `Cc1nc(NC(=O)C2CCCC2)sc1Cc1ccc2c(c1)OCO2`, the Potency is reported as inconclusive: 11.7 µM [inhibitor, partial curve, poor fit].
With `CN1C(=O)/C(=C/c2cc3c(cc2Br)OCO3)NC1=S` the Potency was inconclusive: 6.57 µM [inhibitor, partial curve, poor fit].
With `CCOC(=O)CN(C(=O)COc1nc(-c2ccccc2)cc(C)c1C#N)c1cccc(OC)c1` the Potency was active: 11.7 µM.
With `COc1ccccc1C(=O)NC(=S)Nc1ccc(NC(=O)c2ccco2)cc1` the Potency was active: 5.22 µM.
In the case of `O=C(Nc1cccnc1)C1(c2ccccc2)CCCC1`, the Potency is reported as inconclusive: 4.15 µM [inhibitor, single point].
In the case of `COc1cccc(C(c2c(O)nc(SC)n(C)c2=O)c2c(O)nc(SC)n(C)c2=O)c1`, the “activity change, negative = inhibition” value is reported as inactive: 69.9%.
With `Cc1nn(Cc2ccccc2)c(Cl)c1C(=O)OCC(=O)NCC1CCCO1` (stereo not given) the Potency was inconclusive: 4.15 µM [inhibitor, single point].
For `Cn1c(=O)c2c(nc(NCCc3ccccc3)n2CC(=O)NCCc2ccccc2)n(C)c1=O`, the Potency was active: 13.1 µM.
For `Oc1ccc(N2CCN(c3nc(-c4cccs4)nc4ccccc34)CC2)cc1`, the Potency was inconclusive: 10.4 µM [inhibitor, single point].
For `Cc1cccnc1NC(=O)COc1ccc2c(c1)CCC2`, the “activity change, negative = inhibition” value was inactive: 102%.
In the case of `O=C(O)CC(c1ccccc1F)N1Cc2ccccc2C1=O` (stereo not given), the “activity change, negative = inhibition” value is reported as inactive: 18.9%.
With `COc1cc(C(=O)Nc2ccncc2)cc(OC)c1OC` the Potency was inconclusive: 11.7 µM [inhibitor, single point].
In the case of `CC(C)(C)c1ccc(/C=C2\Oc3cc(O)ccc3C2=O)cc1`, the Potency is reported as inconclusive: 4.65 µM [inhibitor, partial curve, poor fit].
For `N#Cc1cc([N+](=O)[O-])cnc1Nc1ccccc1`, the “activity change, negative = inhibition” value was inactive: 15.7%.
For `COc1ccccc1N1C(=O)CCC1(C#N)c1ccccc1` (stereo not given), the “activity change, negative = inhibition” value was inactive: 23.3%.
With `COc1ccc(/C=C2\SC(=S)N(CCC(=O)Nc3cccc(C(=O)O)c3)C2=O)cc1` the “activity change, negative = inhibition” value was inactive: 32.6%.
For `CCN(CC)CCOc1ccc(-c2nc3cc(Cl)ccc3s2)cc1`, the Potency was inconclusive: 19 µM [inhibitor, single point].
With `Cc1cc(C)n(/N=C/c2ccc(C(C)C)cc2)c(=O)c1C#N` the Potency was inconclusive: 2.62 µM [inhibitor, partial curve, poor fit].
For `CCOC(=O)CNC(=O)C1(/C=C/c2ccccc2)CC(=O)N1c1ccc(OC)cc1` (stereo not given), the Potency was inconclusive: 11.7 µM [inhibitor, single point].
For `Cc1ccc(S(=O)(=O)NCCN2CCOCC2)cc1C`, the Potency was inconclusive: 0.828 µM [inhibitor, full curve, poor fit].
In the case of `Cc1cc(C(=O)NCc2ccc3c(c2)OCO3)n(-c2ccccc2)n1`, the Potency is reported as inconclusive: 7.38 µM [inhibitor, partial curve, poor fit].
In the case of `CC(C)c1ccccc1NC(=O)COC(=O)COc1ccccc1[N+](=O)[O-]`, the “activity change, negative = inhibition” value is reported as inactive: 26.5%.
In the case of `Cn1c(/C=C/c2cccc([N+](=O)[O-])c2)nc2ccccc2c1=O`, the Potency is reported as inconclusive: 18.5 µM [inhibitor, single point].
In the case of `CCN(CC)CCNC(=O)c1sc2nc(-c3ccccc3)cn2c1C`, the Potency is reported as inconclusive: 8.28 µM [inhibitor, partial curve].
With `COc1ccccc1C(CCNS(=O)(=O)c1ccc(C)cc1)c1ccco1` (stereo not given) the Potency was inconclusive: 10.4 µM [inhibitor, partial curve, poor fit].
In the case of `Cc1ccc(C(=O)Nc2nc3ccc(S(C)(=O)=O)cc3s2)cc1C`, the “activity change, negative = inhibition” value is reported as inactive: 31.6%.
For `C(=N\Nc1nc2ccccc2[nH]1)/c1ccc2ncccc2c1`, the Potency was inconclusive: 0.104 µM [inhibitor, full curve].
For `COc1ccc(CCNC(=O)c2ccc(CN3CCOCC3)cc2)cc1`, the “activity change, negative = inhibition” value was inactive: 30.3%.
In the case of `Cc1ccc(C)c(SCC(=O)Nc2cccnc2Cl)c1`, the Potency is reported as inconclusive: 14.7 µM [inhibitor, single point].
For `Cc1ccc2cc(CN(C(=O)c3ccco3)c3ccccc3C)c(=O)[nH]c2c1`, the Potency was inconclusive: 11.7 µM [inhibitor, partial curve, poor fit].
For `COc1ccc(CCNC(=O)CSc2nc(C)nc3c2c(=O)n(C)c(=O)n3C)cc1OC`, the Potency was inconclusive: 8.28 µM [inhibitor, partial curve, poor fit].
In the case of `CSc1cccc(NC(=O)c2cc(S(=O)(=O)N3CCCCC3)c[nH]2)c1`, the Potency is reported as inconclusive: 18.5 µM [inhibitor, single point].
In the case of `COc1ccccc1CNc1nc(S(=O)(=O)c2ccccc2)c(Cl)s1`, the Potency is reported as inconclusive: 18.5 µM [inhibitor, single point].
In the case of `CCOc1ccc(NC(=O)CN(C)C(=O)COc2cccc3c2OC(C)(C)C3)cc1OCC`, the Potency is reported as inconclusive: 18.5 µM [inhibitor, single point].
In the case of `O=C1C(O)=C(O)C(=O)C(O)=C1O`, the Potency is reported as inconclusive: 7.57 µM [inhibitor, partial curve].
In the case of `Cc1ccc(/C([O-])=C(/C(=S)NCc2ccccc2)[n+]2cccc(CO)c2)cc1[N+](=O)[O-]`, the Potency is reported as inconclusive: 13.1 µM [inhibitor, partial curve, poor fit].
In the case of `c1cnc2c(C3NCCc4c3[nH]c3ccccc43)cccc2c1` (stereo not given), the Potency is reported as inconclusive: 18.5 µM [inhibitor, single point].
With `CC(C)(C)NC(=O)c1cnn(-c2ccccc2)c1NC(=O)c1ccccc1` the Potency was inconclusive: 18.5 µM [inhibitor, single point].
In the case of `CSc1ncc(C(=O)Nc2ccccc2)cn1`, the “activity change, negative = inhibition” value is reported as inactive: 311%.
In the case of `CCOC(=O)C(Oc1ccc2c(-c3ccccc3)cc(=O)oc2c1)c1ccccc1` (stereo not given), the Potency is reported as inconclusive: 18.5 µM [inhibitor, single point].
For `CCOC(=O)N1CCN(C(=O)c2ccc3c(SCC(=O)O)c4c(nc3c2)CCC4)CC1`, the Potency was inconclusive: 9.28 µM [inhibitor, partial curve, poor fit].
For `CC(C)CN(C(=O)Cn1nnc(-c2ccc(F)cc2)n1)C1CCS(=O)(=O)C1` (stereo not given), the “activity change, negative = inhibition” value was inactive: 23.3%.
In the case of `CCOC(=O)c1sc(=S)n(C)c1NC(=O)c1ccc(C(C)(C)C)cc1`, the “activity change, negative = inhibition” value is reported as inactive: -29.6%.
For `CCOc1ccc(C(=O)NC(C)CCc2ccccc2)cc1` (stereo not given), the “activity change, negative = inhibition” value was inactive: -31.6%.
With `COc1cccc(Cn2c(=O)c3[nH]cnc3n(-c3ccccc3C)c2=O)c1` the Potency was inconclusive: 18.5 µM [inhibitor, partial curve, poor fit].
With `O=C(CCc1ccccc1)NNC(=O)c1ccc(NC(=O)c2ccccc2)cc1` the Potency was inconclusive: 10.4 µM [inhibitor, partial curve, poor fit].
For `CCc1cc2c(-c3ccccc3)cc(=O)oc2cc1OC(C)C(=O)NCC1CCC(C(=O)O)CC1` (stereo not given), the Potency was active: 9.28 µM.
With `COc1cc(OC)c(NC(=O)Nc2ccc(OC)c(OC)c2)cc1Cl` the “activity change, negative = inhibition” value was inactive: -26.4%.
In the case of `C=CCOc1ccccc1CN1CCC(Oc2cc(C(=O)NC3CC3)ccc2OC)CC1`, the “activity change, negative = inhibition” value is reported as inactive: -0.271%.
In the case of `O=C(CCS(=O)(=O)c1cc(Br)cc2c1N(C(=O)C1CC1)CC2)NCc1ccco1`, the “activity change, negative = inhibition” value is reported as inactive: 10.1%.
With `CC(C)(C)OC(=O)N1CCC(CC2CC(c3ccccc3)=NO2)(C(=O)NCc2ccccc2)CC1` (stereo not given) the Potency was inconclusive: 0.329 µM [inhibitor, full curve].
With `CCn1c(CNC(=O)c2ccccc2)nnc1SCC(=O)N1CCN(c2ccccc2)CC1` the Potency was inconclusive: 10.4 µM [inhibitor, partial curve, poor fit].
For `O=C1Nc2ccc(Br)cc2/C1=C/C1CC=CCC1` (stereo not given), the Potency was inconclusive: 18.5 µM [inhibitor, single point].
With `Cc1cc(C)cc(OCC(=O)Nc2ccc(N3CCOCC3)cc2N2CCOCC2)c1` the Potency was inconclusive: 0.104 µM [inhibitor, full curve, poor fit].
In the case of `Cn1c2c(c(=O)n(C)c1=O)C1c3ccccc3OCC1C(C)(C)O2` (stereo not given), the Potency is reported as active: 1.65 µM.
For `CN1CCN(Cc2ccccc2C(F)(F)F)CC1`, the “activity change, negative = inhibition” value was inactive: -13.6%.
For `CCN(CC(=O)Nc1ccc2c(c1)OCCO2)C(=O)C1CCCCC1`, the Potency was inconclusive: 18.5 µM [inhibitor, single point].
With `O=C(CCc1c[nH]c2ccccc12)N1CCCC1` the “activity change, negative = inhibition” value was inactive: 23%.
In the case of `CCCn1c(=O)n(C)c(=O)c2c(SCC(=O)NCC(c3ccccc3)N(C)C)nc(CC(C)C)nc21` (stereo not given), the Potency is reported as inconclusive: 0.37 µM [inhibitor, full curve, poor fit].
For `Nc1nc(SCc2c(Cl)cccc2Cl)n[nH]1`, the Potency was active: 1.31 µM.
With `COc1cc(C#N)c(NC(=O)CN2CCC(C(N)=O)CC2)cc1OC` the Potency was inconclusive: 5.86 µM [inhibitor, partial curve, poor fit].
With `COc1ccc(OC)c(/C=c2\sc3nc(-c4cccs4)nn3c2=O)c1` the “activity change, negative = inhibition” value was inactive: 0%.
With `CCOC(=O)C1C(=O)OC(C)(C)C1C(CC)C(=O)c1c(C)cc(C)cc1C` (stereo not given) the Potency was inconclusive: 7.38 µM [inhibitor, partial curve].
For `CC(C(=O)N(C)C)N(C#N)c1nc(N(C)C)nc(N(C)C)n1` (stereo not given), the “activity change, negative = inhibition” value was inactive: -16.9%.
With `CSc1ccccc1C(=O)NCc1ccc(F)cc1` the Potency was inconclusive: 6.57 µM [inhibitor, partial curve, poor fit].
